# In PubChem BioAssay AID540256 (National Center for Advancing Translational Sciences (NCATS), 2011):
# The campaign covered roughly 300,000 compounds. About 3,700 (1.2%) were called active. The inconclusive results got no clear call from the source; some entries with a clear call stand among them for comparison. Calls come from the whole dose curve; tested in HEK293 cells. Where the call is inconclusive, the potency comes from a doubtful curve fit.
# Assay: qHTS for Inhibitors of binding or entry into cells for Lassa Virus; note: nearly all actives have a fitted effect of over 50% in size
# Settings: Lassa virus pseudotype entry inhibition, cell reporter; activity change, negative = inhibition: at 37.9 µM (top of the series) unless noted
# % is set by controls: 0 for no effect and ±100 for the full control effect; potency is the fitted concentration of half-maximal effect.
Structure (SMILES),"activity change, negative = inhibition",Potency
CCCCn1c(N)c(N(CCOC)C(=O)CSc2nc3ccc(C)cc3[nH]2)c(=O)[nH]c1=O,inactive: -1.98%,
CCOc1ccccc1N1CC(C(=O)NCCc2ccc(S(N)(=O)=O)cc2)CC1=O (stereo unspecified),,"inconclusive: 2.31 µM [activator, partial curve, poor fit]"
CCC(C)Sc1nc2c(cnn2-c2ccccc2)c(=O)[nH]1 (stereo unspecified),,"inconclusive: 5.17 µM [activator, single point]"
O=C(CCC1N=C2c3ccccc3N=C(SCC(=O)Nc3ccccc3F)N2C1=O)NCc1ccccc1 (stereo unspecified),,"inconclusive: 35.5 µM [inhibitor, partial curve, poor fit]"
COc1cccc(NC(=O)NC2CCCCC2C)c1 (stereo unspecified),,"inconclusive: 22.4 µM [inhibitor, partial curve, poor fit]"
Cc1cc(C)cc(OCC(=O)Nc2cnn(CCCC(=O)O)c2)c1,inactive: 26% [at 46.1 µM],
CCN(CC)C(=O)CSc1nc2ccc(NC(=O)CSc3nnc(N)s3)cc2s1,,"inconclusive: 35.5 µM [inhibitor, single point]"
O=C1CC(c2nc3ccccc3[nH]2)CN1c1cccc(C(F)(F)F)c1 (stereo unspecified),,"inconclusive: 14.6 µM [inhibitor, partial curve, poor fit]"
O=C(c1ccc(C(F)(F)F)cc1)N1CCC(=O)N(C(COCc2ccccc2)Cc2ccccc2)CC1 (stereo unspecified),,"inconclusive: 29.1 µM [inhibitor, single point]"
O=C(N/N=C/c1cn(Cc2ccccc2)c2ccccc12)c1cccnc1,,"inconclusive: 8.91 µM [inhibitor, partial curve, poor fit]"
CCC(=O)N1CCN(c2ccc(NC(=O)c3ccc([N+](=O)[O-])o3)cc2Cl)CC1,,"inconclusive: 15.8 µM [inhibitor, single point]"
COC(=O)c1ccc(NC(=O)CN(C)Cc2cccc(F)c2)cc1,,"inconclusive: 35.5 µM [inhibitor, single point]"
COC(=O)C1=C(O)/C(=C\c2cc(C)n(-c3ccc(F)cc3)c2C)N=C1C,inactive: 1.49%,
COc1ccc2c(/C=N/Nc3ccc(C(=O)O)cc3)c[nH]c2c1,inactive: -7.17% [at 46.1 µM],
COc1ccccc1NC(=O)c1c(Nc2ccccc2F)sc(C(=O)Nc2cccc(Cl)c2)c1N,,"inconclusive: 3.26 µM [inhibitor, partial curve, poor fit]"
COc1cccc(OC)c1CNC(=O)CCSCc1ccccc1F,,"inconclusive: 35.5 µM [inhibitor, single point]"
Cc1ccc2nc(N3CCN(Cc4nnnn4Cc4ccccc4)CC3)c(C#N)cc2c1,,"inconclusive: 17.8 µM [inhibitor, partial curve, poor fit]"
O=C1c2[nH]nc(-c3ccccc3O)c2C(c2ccc(Cl)cc2)N1Cc1ccco1 (stereo unspecified),,"inconclusive: 1.58 µM [inhibitor, full curve, poor fit]"
CC1CCCCN1C(=O)CSc1nc(-c2ccccc2)cn1N (stereo unspecified),,"inconclusive: 35.5 µM [inhibitor, single point]"
CCOC(=O)c1[nH]c2ccc(F)cc2c1NC(=O)CN1CCN(C/C=C/c2ccccc2)CC1,,"inconclusive: 15.8 µM [inhibitor, single point]"
COc1ccccc1-c1ccc(SCC(=O)Nc2cc(C)on2)nn1,inactive: -12.6%,
O=c1nc2sc3ccccc3n2c(=O)n1-c1ccc(Cl)c(Cl)c1,inactive: 0.694% [at 46.1 µM],

Structure (SMILES),"activity change, negative = inhibition",Potency
CCCc1nnc(SCC(=O)Nc2ccc(Cl)cc2Cl)o1,,"inconclusive: 20 µM [activator, partial curve, poor fit]"
COc1ccc(C(C(=O)NC2CCCCC2)N(Cc2cccs2)C(=O)Cc2c[nH]c3ccccc23)cc1 (stereo unspecified),,"inconclusive: 11.6 µM [inhibitor, partial curve]"
N/C(=N\OC(=O)COc1ccc(Br)cc1)c1cccc([N+](=O)[O-])c1,,"inconclusive: 35.5 µM [activator, partial curve, poor fit]"
Cc1ccc(C2=Nc3ccc(Br)cc3C(c3ccncc3)=NN2)cc1,inactive: 3.06%,
COc1cccc(N2CC(NC(=O)C(c3ccccc3)c3ccccc3)CC2=O)c1 (stereo unspecified),inactive: -6.13% [at 46.1 µM],
C/C(=N\Nc1ccc(S(N)(=O)=O)cc1[N+](=O)[O-])c1ccco1,inactive: -9.34%,
CN(c1ccccc1)c1nc2ccsc2c(=O)s1,inactive: -0.0754%,
COCC(=O)Oc1c(Sc2ccc(C)cc2)c(C)nn1C(C)(C)C,,"inconclusive: 3.55 µM [activator, single point]"
Cc1ccc(NC(=O)CC(C)S(=O)(=O)c2ccc3c(c2)NC(=O)CO3)c(C)c1 (stereo unspecified),inactive: 0.243% [at 46.1 µM],
COC(=O)C1=CN(Cc2ccc(OC)cc2)C=C(C(=O)OC)C1c1cccs1,,"inconclusive: 17.8 µM [inhibitor, single point]"
CCCCCCNC(=O)Cc1ccc(Br)cc1,,"inconclusive: 5.62 µM [inhibitor, single point]"
CC1(C(=O)N/N=C/c2ccccc2)CC1(Cl)Cl (stereo unspecified),inactive: 20.7%,
COc1ccc(-n2c(C)n[nH]c2=O)cc1,,"inconclusive: 18.3 µM [activator, single point]"
CCN(CC)CCNC(=O)C12CC3CC(C)(CC(C)(C3)C1)C2,,"inconclusive: 18.3 µM [inhibitor, single point]"
Cc1nnc2sc(SCc3ccc(Cl)cc3)nn2c1=O,,"inconclusive: 0.164 µM [inhibitor, full curve, poor fit]"
CCC(=O)Nc1ccc2c(c1)ncn2-c1ccccc1,,"inconclusive: 13 µM [activator, partial curve, poor fit]"
O=S(=O)(/C(=C\c1ccc(C(F)(F)F)cc1)c1nc2ccccc2[nH]1)c1ccccc1,,active: 3.55 µM
Cc1ccc(CNC(=O)c2cc3sccc3n2Cc2ccc(Cl)cc2)cc1,inactive: 3.05% [at 46.1 µM],
CCCn1c(=O)c2sccc2n2c(CCCC(=O)NCCc3ccc(Cl)cc3)nnc12,inactive: 13.5% [at 46.1 µM],
N#CC1=C(N)Oc2c(ccc3cccnc23)C1c1cccnc1 (stereo unspecified),,"inconclusive: 14.6 µM [inhibitor, partial curve, poor fit]"
Cc1ccc(-n2ncc3c(=O)n(-c4ccc(C)c(C)c4)c(-c4ccco4)nc32)cc1,,"inconclusive: 10.3 µM [inhibitor, partial curve, poor fit]"
CC(CCc1ccccc1)NC(=O)Cn1ncc2c3ccccc3n(Cc3ccc(F)cc3)c2c1=O (stereo unspecified),,"inconclusive: 3.55 µM [inhibitor, partial curve, poor fit]"

# Grouped by structure, those above containing a cyano group (2)
Structure (SMILES),"activity change, negative = inhibition",Potency
Cc1ccc2nc(N3CCN(Cc4nnnn4Cc4ccccc4)CC3)c(C#N)cc2c1,,"inconclusive: 17.8 µM [inhibitor, partial curve, poor fit]"
N#CC1=C(N)Oc2c(ccc3cccnc23)C1c1cccnc1 (stereo unspecified),,"inconclusive: 14.6 µM [inhibitor, partial curve, poor fit]"

# Further compounds.

Structure (SMILES),"activity change, negative = inhibition",Potency
O=C(c1cccc([N+](=O)[O-])c1)N1CCN(c2cccc(Cl)c2)CC1,,"inconclusive: 8.2 µM [inhibitor, single point]"
O=C(Nc1cccc(S(=O)(=O)N2CCCCC2)c1)c1c2c(nc3ccccc13)CCN(Cc1ccccc1)C2,inactive: -24.9%,
COc1ccc2nc(NC(=O)CCn3cccc3)sc2c1,,"inconclusive: 17.8 µM [inhibitor, single point]"
Cc1ccc(NC(=O)CSc2ncc3c(n2)-c2ccccc2N(Cc2cccc(F)c2)S3(=O)=O)cc1F,inactive: 20.6% [at 46.1 µM],
Cc1ccccc1C(=O)Nn1cnnc1,inactive: -12.5% [at 46.1 µM],
O=C1c2ccccc2C(=O)C1(c1ccccc1)N1CCN(c2cccc(Cl)c2)CC1,inactive: -18% [at 46.1 µM],
Cc1ccc(C(=O)CNc2cc(C)ccc2C)cc1,,"inconclusive: 6.31 µM [activator, partial curve, poor fit]"
NC(=O)c1cccnc1Nc1cccc([N+](=O)[O-])c1,,"inconclusive: 2 µM [activator, full curve, poor fit]"
Cc1ccccc1Cn1c(C(=O)O)c(CNCc2cccc(F)c2)c2ccccc21,inactive: 1.82% [at 46.1 µM],
COc1ccccc1OCCNC(=O)Nc1ccc(Br)cc1,,"inconclusive: 6.31 µM [inhibitor, single point]"
COc1cc(NC(=O)Cc2ccc(S(=O)(=O)N3CCOCC3)s2)c(OC)cc1Cl,,"inconclusive: 10 µM [inhibitor, partial curve]"
COCCNC(=O)c1cnn(-c2ccc(C)cc2C)c1C1CCN(C(=O)OC(C)(C)C)CC1,,"inconclusive: 1.26 µM [inhibitor, full curve, poor fit]"
CC1(C)CC(=O)c2cnc(N3CCc4ccccc4C3)nc2C1,,"inconclusive: 29.1 µM [inhibitor, single point]"
CN(C)CCOc1ccc(-c2nc(-c3ccc4c(c3)CCC4=NO)c(-c3ccncc3)[nH]2)cc1,,"inconclusive: 9.96 µM [activator, partial curve, poor fit]"
O=C1C(=O)N(CCN2CCCCC2)c2ccccc21,,"inconclusive: 11.2 µM [inhibitor, partial curve, poor fit]"
COC(=O)N[C@@H](c1cccs1)C(C(C)=O)C(=O)OC (stereo partly specified),,"inconclusive: 1.19 µM [activator, single point]"
CCn1cc(CNCc2cn(C)nc2-c2ccc(C3CCCCC3)cc2)cn1,,"inconclusive: 35.5 µM [inhibitor, single point]"
O=C(CSc1ccc(F)cc1)Nc1ccc(N2CCOCC2)c(Cl)c1,,"inconclusive: 0.112 µM [activator, full curve, poor fit]"
COc1ccccc1NC(=O)c1oc2ccccc2c1NC(=O)c1cc(OC)c(OC)c(OC)c1,,"inconclusive: 1.3 µM [inhibitor, full curve]"
Cc1ccc(SCC(=O)Nc2ccc3c(c2)OCCO3)cc1,,"inconclusive: 20.6 µM [activator, single point]"
FC(F)(F)c1ccc(Cl)c(NC2=NCCCCC2)c1,,"inconclusive: 1.26 µM [activator, partial curve, poor fit]"
COc1ccccc1/C=C/c1nc(C#N)c(N2CCCCC2)o1,,"inconclusive: 6.31 µM [inhibitor, partial curve, poor fit]"
